Test results: PubChem BioAssay AID2685 (National Center for Advancing Translational Sciences (NCATS), 2010)
In all, about 320,000 compounds went through this assay and about 2,100 (0.66%) were called active. The shares of active, inactive and inconclusive entries below differ from those in the screen. Calls come from the whole dose curve; as a rule, active = well fitted inhibition curve with a large enough effect in the signal ratio, with a control signal flat (not every such curve was filed as active); inconclusive = small, poorly fitted or top-dose-only effect, or effect the other way, or a change in a side signal; inactive = flat fitted curve, though single readings scatter; the % refers to the signal ratio. Potencies of inconclusive entries are doubtful fits and often do not repeat.

Assay: qHTS Assay for Lipid Storage Modulators in Drosophila S3 Cells
Settings: BODIPY lipid droplet fluorescence, 18-24 h, cells fed with added oleic acid; lipid storage change, negative = inhibition: at 46.1 µM (top of the series) unless noted
How it was run: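 Drosophila S3 cells got compounds at several concentrations plus oleic acid (400 uM solution). Laser-scanning cytometry with 488 nm excitation read lipid droplets at 500-530 nm and cells at 575-640 nm. Percent activity was relative to 20 uM Triacsin C.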
% is set by controls: 0 for no effect and ±100 for the full control effect; potency is the fitted concentration of half-maximal effect.

For `CCCC[C@@H]1CNC(=S)N1CCC12CC3CC(CC(C3)C1)C2`, which lipid storage change, negative = inhibition is on record?
Its lipid storage change, negative = inhibition is inconclusive: -17.7%.

With `CCCCNC(=O)c1cc(C)nc2ccccc12` as the molecule, how does the lipid storage change, negative = inhibition read?
The lipid storage change, negative = inhibition was inconclusive: -8.35%.

For `O=C(NC1CCN(C(=O)NCc2ccccc2)CC1)c1ccco1`, which Potency is on record?
The Potency was inconclusive: 5.17 µM [falling, full curve].

With `CC(C)[C@H](Nc1ccc(C(F)(F)F)cc1[N+](=O)[O-])C(=O)O` as the molecule, how does the lipid storage change, negative = inhibition read?
The lipid storage change, negative = inhibition was inconclusive: -22.5%.

For `CN1CCN(CC/C=C2/c3ccccc3Sc3ccc(S(=O)(=O)N(C)C)cc32)CC1`, which lipid storage change, negative = inhibition is on record?
The lipid storage change, negative = inhibition was inconclusive: -0.0192%.

With `CCN(CC)S(=O)(=O)c1ccc(OC)c(NC(=O)CSc2ccccc2)c1` as the molecule, how does the lipid storage change, negative = inhibition read?
The lipid storage change, negative = inhibition was inconclusive: -18.3%.

With `Cc1cc(O)ccc1Nc1nc2ccccc2nc1Nc1ccc(O)cc1C` as the molecule, how does the lipid storage change, negative = inhibition read?
The lipid storage change, negative = inhibition was inconclusive: 2.66%.

For `CC1=C(C(=O)OCCOC(C)C)C(c2cc3c(cc2Br)OCO3)CC(=O)N1` (stereo not given), which lipid storage change, negative = inhibition is on record?
Its lipid storage change, negative = inhibition is inconclusive: 135%.

Which Potency does the source give for `CCOC(=O)CSc1ncnc2c1cnn2-c1ccc(Cl)cc1` here?
The Potency was active: 0.184 µM.

For `c1ccc(Nc2ccccn2)cc1`, which Potency is on record?
Its Potency is inconclusive: 6.51 µM [falling, single point].

Which Potency does the source give for `CC1=C(C(=O)OCc2ccccc2)C(c2ccc3ccccc3c2)NC(=O)N1CCCC(=O)O` (stereo not given) here?
Its Potency is inconclusive: 29.1 µM [activator, partial curve, poor fit].

With `CC(C)(C)C(=O)Nc1ccc(C(=O)CSc2nnc(C3CC3)n2C2CC2)cc1` as the molecule, how does the lipid storage change, negative = inhibition read?
The lipid storage change, negative = inhibition was inconclusive: -5.73%.

With `COc1ccc(C(=O)N2CCCC(Nc3ccc(F)cc3)C2)cc1F` (stereo not given) as the molecule, how does the Potency read?
The Potency was inconclusive: 29.1 µM [activator, single point].

With `COC(=O)C(Cc1ccccc1)NC(=O)C12CC3CC(CC(C3)C1)C2` (stereo not given) as the molecule, how does the Potency read?
Its Potency is inconclusive: 9.2 µM [cytotoxic, partial curve].

Which lipid storage change, negative = inhibition does the source give for `C=C(C)COc1ccc(-c2ncncc2-c2ccc(Br)cc2)c(O)c1` here?
Its lipid storage change, negative = inhibition is inconclusive: 5.01%.

For `CCC(C)(C)NC(=O)C(c1ccc(OC)cc1)N(C(=O)CCC(=O)Nc1cc(C)on1)c1ccccc1OC` (stereo not given), which Potency is on record?
Its Potency is inconclusive: 1.16 µM [falling, single point].

For `CCn1c(SCC(=O)N/N=C/c2cc(OC)c(OC)c(OC)c2)nc2ccccc21`, which lipid storage change, negative = inhibition is on record?
Its lipid storage change, negative = inhibition is inconclusive: 1.41%.

Which lipid storage change, negative = inhibition does the source give for `CC(=O)Nc1ccc(N2CCOCC2)c([N+](=O)[O-])c1` here?
The lipid storage change, negative = inhibition was inconclusive: -46.9% [at 9.22 µM].

Which Potency does the source give for `COc1cccc(CN2CC(C(=O)NCCCCc3ccccn3)CCC2=O)c1` (stereo not given) here?
Its Potency is inconclusive: 29.1 µM [activator, single point].

For `Cc1sc(N/N=C/c2ccco2)nc1-c1ccccc1`, which Potency is on record?
Its Potency is inconclusive: 7.31 µM [rising, partial curve].
